Some of these results come from one statement about several compounds together.
test system: Meloidogyne spp.; test: Meloidogyne spp. (root-knot nematode) contact activity, preventive, drench test; assay type: in vivo; conditions: 20 ppm, 5 ml WP10 suspension drench on cucumber cv. Toshka pots; 3000 eggs of M. incognita; Zeck's gall index after fourteen days

Compound	reduction of galling compared to the untreated control
O=C(NCC1(c2c(F)cc(F)cc2F)CC1)c1ncccc1Cl [A.22]	greater than 75%
O=C(NCC1(c2cc(F)c(F)c(F)c2)CC1)c1ncccc1C(F)(F)F [A.23]	greater than 75%
O=C(NCC1(c2cc(F)c(F)c(F)c2)CC1)c1ncccc1Cl [A.24]	greater than 75%
O=C(NCC1(c2c(F)cc(F)cc2F)CC1)c1ncccc1F [A.25]	greater than 75%
O=C(NCC1(c2cc(F)c(F)c(F)c2)CC1)c1ncccc1Br [A.28]	greater than 75%
O=C(NCC1(c2c(F)cc(Cl)cc2F)CC1)c1ncccc1C(F)(F)F [A.31]	greater than 75%
O=C(NCC1(c2c(F)cc(Cl)cc2F)CC1)c1ncccc1F [A.32]	greater than 75%
O=C(NCC1(c2ccc(C(F)(F)F)cc2F)CC1)c1ncccc1C(F)(F)F [A.36]	greater than 75%
O=C(NCC1(c2ccc(C(F)(F)F)cc2F)CC1)c1ncccc1F [A.38]	greater than 75%
O=C(NCC1(c2ccc(Cl)cc2Cl)CC1)c1ncccc1Cl [A.49]	greater than 75%
O=C(NCC1(c2ccc(Cl)cc2Cl)CC1)c1ncccc1F [A.50]	greater than 75%
Cc1ccc(C2(CNC(=O)c3ncccc3F)CC2)cc1 [A.56]	greater than 75%
O=C(NCC1(c2c(Cl)cc(Cl)cc2Cl)CC1)c1nccnc1Cl [A.81]	greater than 75%
O=C(NCC1(c2ccc(C(F)(F)F)cc2Cl)CC1)c1ncncc1Cl [A.97]	greater than 75%
